Binding data for three molecules are collected here from patent US20130064826A1 (KALOBIOS PHARMACEUTICALS, published 2013).

Protein sequences, listed by entry. Tags and fused reporters are not part of them. Residues count along the entry.
UniProt Q14246, residues 21-599: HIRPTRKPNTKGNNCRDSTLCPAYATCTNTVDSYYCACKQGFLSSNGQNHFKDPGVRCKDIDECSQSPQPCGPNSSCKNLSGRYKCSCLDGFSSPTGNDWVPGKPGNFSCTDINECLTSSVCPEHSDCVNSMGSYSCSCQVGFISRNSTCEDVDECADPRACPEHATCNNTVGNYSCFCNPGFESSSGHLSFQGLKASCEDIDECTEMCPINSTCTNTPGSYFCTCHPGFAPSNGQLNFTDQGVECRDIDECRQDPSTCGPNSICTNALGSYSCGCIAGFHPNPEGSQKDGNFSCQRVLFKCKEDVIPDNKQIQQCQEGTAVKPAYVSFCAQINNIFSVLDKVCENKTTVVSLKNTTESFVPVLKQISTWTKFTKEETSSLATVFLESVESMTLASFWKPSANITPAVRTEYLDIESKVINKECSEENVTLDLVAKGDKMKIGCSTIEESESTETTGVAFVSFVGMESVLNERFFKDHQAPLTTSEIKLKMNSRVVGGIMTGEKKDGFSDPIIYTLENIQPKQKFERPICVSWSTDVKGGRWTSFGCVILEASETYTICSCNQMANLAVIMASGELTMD

The target in experiment [1] is recombinant human EMR1 (human) (UniProt Q14246). As to the kind of experiment: ELISA on recombinant human EMR1. (ELISA stands for enzyme-linked immunosorbent assay.)
Experiment [2] addresses human EMR1-Fc fusion protein (human) (UniProt Q14246). In words: ELISA.
Experiment [3] deals with recombinant human EMR1 (human) (UniProt Q14246). As to the kind of experiment: Western blot under reducing conditions.

These are yes or no findings as the source states them, for the method shown. Some binding calls cover weakened binding; strength is not graded here.

B1: monoclonal antibody 19-1E7 (antibody, V domains shown)
VH: QVQLKESGPGLVAPSQSLSITCTVSGFSLTNFGIHWVRQPPGKGLEWLGVIWSGGGTNYNSALMSRLSISKDNSKSQVFLKMNSLQTDDTAIYYCVSIYYRGFDSWGQGTTLTVSS
VL: DVFMTQAPLSLPVSLGDQASISCRSSQSIVHSNGNTYLEWYLQKPGQSPKLLIYRVSNRFSGVPDRFSGSGSGTDFTLKISRVEAEDLGVYYCFQGSHVPLTFGAGTRLELK
notes: Murine hybridoma antibody raised against human EMR1-Fc; Hybridoma supernatant was used in the screening
On to B1, for which the binding entry in experiment [1] is “binds”.

B2: EMS Fab (Fab, V domains shown)
VH: B1 VH
VL: B1 VL
B2: in experiment [2], the binding result is given as “binds”.

B3: chimeric 19-1E7 IgG1k antibody (c1E7) (antibody, V domains shown)
VH: B1 VH
VL: B1 VL
notes: 19-1E7 variable regions combined with human gamma-1 Fc and kappa constant regions (IgG1 kappa); Made in fucosylated (CHOK1 SV) and non-fucosylated (MS704-PF) forms; also called chimeric 1E7
B3: in experiment [3], the binding entry is reported as “binds”.
